± gives the uncertainty stated by the source. Many entries were measured with a wide error.
Test: self-splicing fitness, log relative to wild type (ln ratio); higher = more splicing; Tetrahymena group I intron in knt gene, E. coli kanamycin selection, DiMSum; sequences stand for … in CUCUCU…GGAGGGAAAAGUUAUCAGGCAUGCACCUGGUAGCUAGUCUUUAAACCAAUAGAUUGCAUCGGUUUAAAAGGCAAGACCGUCAAAUUGCGGGAAAGGGGUCAACAGCCGUUCAGUACCAAGUCUCAGGGGAAACUUUGAGAUGGCCUUGCAAAGGGUAUGGUAAUAAGCUGACGGACAUGGUCCUAACCACGCAGCCAAGUCCUAAGUCAACAGAUCUUCUGUUGAUAUGGAUGCAGUUCACAGACUAAAUGUCGGUCGGGGAAGAUGUAUUCUUCUCAUAAGAUAUAGUCGGACCUCUCCUUAAUGGGAGCUAGCGGAUGAAGUGAUGCAACACUGGAGCCGCUGGGAACUAAUUUGUAUGCGAAAGUAUAUUGAUUAGUUUUGGAGUACUCGUGGUCG
Procedure, shortened: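 A randomised library covering all eight P1ex-region intron nucleotides was built with the intron in the knt kanamycin-resistance gene on pET-22b(+) and held in E. coli BL21(DE3). Cells were grown overnight at 37°C or 30°C on LB agar, with or without 25 μg/mL kanamycin, plus 100 μg/mL carbenicillin, 50 μM IPTG and 0.2% rhamnose, and pooled colonies were amplicon-sequenced on an Illumina HiSeq 2500. DiMSum fitness is the error-weighted combination of wild-type-normalised replicate fold changes, kanamycin versus none.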

Sequence | self-splicing fitness (ln) (30 °C) | self-splicing fitness (ln) (37 °C)
CGUCAGCAAUAUUACGAUGC | -4.73 ± 0.59 | -3.36 ± 0.6
GGCGAGCAAUAUUACGCCUC | – | -2.03 ± 0.66
UGAGAGCAAUAUUACGCACU | -3.11 ± 0.32 | -2.02 ± 0.21
AGUCAGCAAUAUUACGCGCU | -3.02 ± 0.14 | -1.86 ± 0.21
ACCUAGCAAUAUUACGCAUG | -2.27 ± 0.15 | -1.42 ± 0.14
CUAUAGCAAUAUUACGUAAA | – | -2.72 ± 0.61
UUUGAGCAAUAUUACGCCUA | – | -0.858 ± 0.64
UCAUAGCAAUAUUACGUCAA | – | -3.28 ± 0.52
UGAGAGCAAUAUUACGCUCG | -2.25 ± 1.1 | –
GGGCAGCAAUAUUACGUCCU | -5.74 ± 1 | -3.02 ± 0.32
UCGGAGCAAUAUUACGACUC | -1.96 ± 1.2 | –
CUGUAGCAAUAUUACGAAUC | – | -3.04 ± 0.74
CAGAAGCAAUAUUACGACCC | -2.17 ± 0.87 | –
AUUUAGCAAUAUUACGCUAC | -1.52 ± 0.87 | -3.28 ± 0.6
AAAGAGCAAUAUUACGGAGC | – | -2.9 ± 0.53
UUUGAGCAAUAUUACGGAGC | -2.02 ± 0.49 | -1.88 ± 1.2
UCGAAGCAAUAUUACGCGAC | -3.47 ± 0.25 | -2.2 ± 0.26
CGUGAGCAAUAUUACGCCGA | -2.66 ± 0.8 | –
CUUCAGCAAUAUUACGGGUA | -3.12 ± 0.22 | -3.74 ± 0.28
UCGCAGCAAUAUUACGUUGC | -4.38 ± 0.52 | –
UCGUAGCAAUAUUACGAGCU | -0.828 ± 0.82 | -0.44 ± 1.4
AAGGAGCAAUAUUACGCAGA | -3.36 ± 0.61 | –
AAUAAGCAAUAUUACGUGAA | -2.46 ± 0.16 | -0.674 ± 0.13
UCGGAGCAAUAUUACGAAAU | – | -1.91 ± 0.68

Sequence | self-splicing fitness (ln) (30 °C) | self-splicing fitness (ln) (37 °C)
CAACAGCAAUAUUACGAAGU | -5.26 ± 0.71 | –
CAUUAGCAAUAUUACGCCGG | -0.963 ± 0.15 | 0.612 ± 0.24
UUAGAGCAAUAUUACGUAGU | -1.3 ± 0.21 | -3.47 ± 0.42
GGUAAGCAAUAUUACGGAGG | -3.79 ± 0.59 | –
AUCGAGCAAUAUUACGAGAC | – | -2.65 ± 0.63
CUAUAGCAAUAUUACGCCCC | -1.55 ± 1.2 | -1.11 ± 0.9
UCGUAGCAAUAUUACGUCGC | -2.58 ± 0.8 | –
GCAGAGCAAUAUUACGGCCC | – | -1.65 ± 0.69
UUUUAGCAAUAUUACGAUCC | – | -0.735 ± 1
GCCGAGCAAUAUUACGAAUA | -2.87 ± 1.1 | –
UCACAGCAAUAUUACGCCGA | -0.333 ± 0.1 | 0.184 ± 0.14
ACACAGCAAUAUUACGUUCU | -0.986 ± 0.06 | -0.532 ± 0.068
CGGGAGCAAUAUUACGUACU | -4.62 ± 1 | –
CGAGAGCAAUAUUACGUUCC | -2.65 ± 0.76 | –
AUAUAGCAAUAUUACGGAGC | -2.93 ± 0.53 | –
UGUGAGCAAUAUUACGUCGU | – | -3.21 ± 0.74
GAGGAGCAAUAUUACGCAAC | – | -2.95 ± 0.61
GGUCAGCAAUAUUACGUACC | – | 0.12 ± 0.76
CUCCAGCAAUAUUACGACCA | -3.36 ± 0.55 | –
UGGUAGCAAUAUUACGGGAC | -4.19 ± 1 | –
AGAAAGCAAUAUUACGUAUC | -3.62 ± 0.3 | -2.34 ± 0.24
GCGAAGCAAUAUUACGCAUG | -3.12 ± 0.44 | -2.76 ± 0.24
GGGAAGCAAUAUUACGUCGG | -3.6 ± 0.59 | –
AAAUAGCAAUAUUACGCUCU | -0.111 ± 0.075 | -0.0401 ± 0.091

Sequence | self-splicing fitness (ln) (30 °C) | self-splicing fitness (ln) (37 °C)
CUGUAGCAAUAUUACGGUAC | -3.7 ± 0.73 | -2.59 ± 0.28
UGAUAGCAAUAUUACGACGC | -3.89 ± 1 | –
GCGGAGCAAUAUUACGCAAU | – | -2.2 ± 1.1
CAGUAGCAAUAUUACGUUGA | -5.39 ± 0.51 | –
CCGAAGCAAUAUUACGAACC | – | -2.41 ± 0.63
GCUGAGCAAUAUUACGCCUA | -1.55 ± 0.32 | -0.595 ± 0.2
CGGUAGCAAUAUUACGUUAU | – | -2.01 ± 0.65
ACCAAGCAAUAUUACGUCGC | -3.25 ± 0.19 | -1.27 ± 0.14
UCCAAGCAAUAUUACGGCUC | -3.84 ± 0.37 | -2.85 ± 0.62
UGUAAGCAAUAUUACGGUAU | -4.54 ± 0.72 | –
CUCAAGCAAUAUUACGCCGC | -4.16 ± 1 | -2.1 ± 0.79
UCGGAGCAAUAUUACGGACA | -1.52 ± 0.87 | –
UUUAAGCAAUAUUACGCCAU | -2.02 ± 1.2 | –
ACGAAGCAAUAUUACGCAUA | -1.44 ± 0.08 | -0.782 ± 0.072
AUGGAGCAAUAUUACGUCAC | – | -2.05 ± 0.51
CAUUAGCAAUAUUACGGCAU | -2.99 ± 0.21 | -1.66 ± 0.17
CGCGAGCAAUAUUACGCCUA | -1.16 ± 0.56 | –
CGGGAGCAAUAUUACGUGAA | -3.92 ± 0.52 | –
AAUGAGCAAUAUUACGGGCC | -4 ± 0.73 | –
GUUUAGCAAUAUUACGGGUU | -3.23 ± 0.6 | –
UGGGAGCAAUAUUACGAGUC | -3.92 ± 0.61 | –
UUGGAGCAAUAUUACGAGAA | -1.61 ± 0.76 | -1.78 ± 0.44
AAGUAGCAAUAUUACGCAAA | -2.62 ± 0.52 | –
ACUGAGCAAUAUUACGGUCC | -3.17 ± 0.53 | –

An excerpt of these results, as tab-separated lines:
Sequence	self-splicing fitness (ln) (30 °C)	self-splicing fitness (ln) (37 °C)
GCGAAGCAAUAUUACGCAUG	-3.12 ± 0.44	-2.76 ± 0.24
GGGAAGCAAUAUUACGUCGG	-3.6 ± 0.59	–
AAAUAGCAAUAUUACGCUCU	-0.111 ± 0.075	-0.0401 ± 0.091
CUGUAGCAAUAUUACGGUAC	-3.7 ± 0.73	-2.59 ± 0.28
UGAUAGCAAUAUUACGACGC	-3.89 ± 1	–
GCGGAGCAAUAUUACGCAAU	–	-2.2 ± 1.1
CAGUAGCAAUAUUACGUUGA	-5.39 ± 0.51	–
CCGAAGCAAUAUUACGAACC	–	-2.41 ± 0.63
GCUGAGCAAUAUUACGCCUA	-1.55 ± 0.32	-0.595 ± 0.2
CGGUAGCAAUAUUACGUUAU	–	-2.01 ± 0.65
ACCAAGCAAUAUUACGUCGC	-3.25 ± 0.19	-1.27 ± 0.14
UCCAAGCAAUAUUACGGCUC	-3.84 ± 0.37	-2.85 ± 0.62
UGUAAGCAAUAUUACGGUAU	-4.54 ± 0.72	–
CUCAAGCAAUAUUACGCCGC	-4.16 ± 1	-2.1 ± 0.79
UCGGAGCAAUAUUACGGACA	-1.52 ± 0.87	–
UUUAAGCAAUAUUACGCCAU	-2.02 ± 1.2	–
ACGAAGCAAUAUUACGCAUA	-1.44 ± 0.08	-0.782 ± 0.072
CAUUAGCAAUAUUACGGCAU	-2.99 ± 0.21	-1.66 ± 0.17
CGGGAGCAAUAUUACGUGAA	-3.92 ± 0.52	–
AAUGAGCAAUAUUACGGGCC	-4 ± 0.73	–
UGGGAGCAAUAUUACGAGUC	-3.92 ± 0.61	–
UUGGAGCAAUAUUACGAGAA	-1.61 ± 0.76	-1.78 ± 0.44
AAGUAGCAAUAUUACGCAAA	-2.62 ± 0.52	–
ACUGAGCAAUAUUACGGUCC	-3.17 ± 0.53	–

The listing continues:

Sequence | self-splicing fitness (ln) (30 °C) | self-splicing fitness (ln) (37 °C)
GCUUAGCAAUAUUACGGAGA | -2.02 ± 0.14 | -0.596 ± 0.12
GCGGAGCAAUAUUACGAGGC | -1.99 ± 0.59 | –
CCCUAGCAAUAUUACGCGCC | -4.44 ± 0.59 | –
UCGUAGCAAUAUUACGCCAC | -2.15 ± 0.69 | -1.6 ± 0.59
GUUGAGCAAUAUUACGCACG | – | -1.54 ± 0.66
GAUGAGCAAUAUUACGGGUC | -3.5 ± 1 | -3.19 ± 0.52
UGUAAGCAAUAUUACGGCCC | – | 0.868 ± 0.58
UUGUAGCAAUAUUACGACUC | 0.426 ± 0.51 | 0.363 ± 0.58
GGAGAGCAAUAUUACGCGGG | – | -1.24 ± 0.52
UCUAAGCAAUAUUACGCUCA | -3.48 ± 1.1 | -3.71 ± 0.6
CACGAGCAAUAUUACGUUCA | -2.99 ± 0.18 | -2.49 ± 0.24
GGUCAGCAAUAUUACGUUCG | -0.853 ± 0.093 | 0.373 ± 0.13
GCUGAGCAAUAUUACGGACC | -0.413 ± 0.76 | 1.15 ± 1.1
AGCGAGCAAUAUUACGAGGC | – | -2.13 ± 0.78
CUGGAGCAAUAUUACGAUGC | -4.31 ± 1 | –
CCCGAGCAAUAUUACGAAGG | -4.73 ± 0.59 | –
GGAGAGCAAUAUUACGAAAU | -3.86 ± 0.6 | –
CACGAGCAAUAUUACGGAUC | -4.07 ± 0.51 | –
CGUCAGCAAUAUUACGAGCC | – | -1.77 ± 0.53
UCGGAGCAAUAUUACGGUCU | – | -2.11 ± 0.55
AUACAGCAAUAUUACGCAAU | -1.93 ± 0.15 | -1.02 ± 0.16
AUGUAGCAAUAUUACGGCUC | – | 0.00657 ± 0.52
AGAGAGCAAUAUUACGGAGC | -1.29 ± 0.82 | -0.595 ± 1.4
UCAUAGCAAUAUUACGGUAC | – | -3.21 ± 0.33

Sequence | self-splicing fitness (ln) (30 °C) | self-splicing fitness (ln) (37 °C)
GCUGAGCAAUAUUACGAAUG | -2.91 ± 0.53 | –
CAGUAGCAAUAUUACGAUAA | – | -3.58 ± 0.59
UUAGAGCAAUAUUACGCUUC | -2.81 ± 0.32 | -3.26 ± 1
CUUCAGCAAUAUUACGUCAC | -4.73 ± 0.72 | –
UUUGAGCAAUAUUACGCCUC | -2.53 ± 0.62 | -0.879 ± 0.39
UGCGAGCAAUAUUACGUCAC | -1.96 ± 0.5 | –
CCUCAGCAAUAUUACGACAA | -1.92 ± 0.17 | -2.31 ± 0.25
CCAGAGCAAUAUUACGGAGA | – | -2.37 ± 0.55
CUCCAGCAAUAUUACGUCGG | -3.14 ± 0.15 | -2.36 ± 0.15
AGCGAGCAAUAUUACGAAAC | -2.08 ± 0.8 | -3.39 ± 0.73
GACGAGCAAUAUUACGUAUC | -3.2 ± 0.6 | –
UCAGAGCAAUAUUACGGCAG | -3.72 ± 1 | –
UGAAAGCAAUAUUACGCUGC | -3.52 ± 0.52 | -2.92 ± 0.75
GCAAAGCAAUAUUACGAAGA | -1.88 ± 0.18 | -2.45 ± 0.23
AGGGAGCAAUAUUACGAAUC | -5.26 ± 1 | –
CCUUAGCAAUAUUACGCAUC | -5.3 ± 0.59 | –
CAGGAGCAAUAUUACGGCCA | -4.26 ± 1 | 0.122 ± 0.3
GGGAAGCAAUAUUACGGAGA | -2.62 ± 0.76 | –
CGUAAGCAAUAUUACGUCGC | -1.29 ± 0.83 | –
ACUGAGCAAUAUUACGUAUC | -4.78 ± 1 | –
UCAGAGCAAUAUUACGGCAA | – | -1.85 ± 0.81
UCUAAGCAAUAUUACGAGCU | -4.69 ± 0.51 | -3.25 ± 0.52
AGGAAGCAAUAUUACGAUAC | -3.27 ± 0.26 | -2.02 ± 0.2
UCGUAGCAAUAUUACGUAAC | – | -2.23 ± 0.51

Reference: the supplement of paper PMC7877785
